Laboratory results from doi:10.1101/2023.04.29.538809.
These are yes or no findings as the source states them, for the method shown. Binding seen in cells or lysates may run through a third protein. Some binding calls cover weakened binding; strength is not graded here.

Protein sequences, listed by entry. Tags and fused reporters are not part of them. Lines headed by an entry give the natural chain unless they say otherwise; changes in a name come on top.
UniProt Q15172, whole entry: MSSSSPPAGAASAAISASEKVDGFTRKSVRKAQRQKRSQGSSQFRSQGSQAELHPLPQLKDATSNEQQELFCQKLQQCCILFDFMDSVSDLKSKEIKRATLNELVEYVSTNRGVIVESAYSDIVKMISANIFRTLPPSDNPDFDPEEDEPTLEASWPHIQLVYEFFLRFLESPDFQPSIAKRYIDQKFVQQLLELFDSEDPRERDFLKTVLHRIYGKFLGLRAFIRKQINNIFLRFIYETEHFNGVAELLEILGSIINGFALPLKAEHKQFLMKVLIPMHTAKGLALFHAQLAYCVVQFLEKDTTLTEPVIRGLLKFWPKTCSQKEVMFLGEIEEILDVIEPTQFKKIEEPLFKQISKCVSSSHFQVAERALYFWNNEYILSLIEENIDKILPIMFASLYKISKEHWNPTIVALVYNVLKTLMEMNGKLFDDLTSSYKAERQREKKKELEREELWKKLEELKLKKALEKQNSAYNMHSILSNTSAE
UniProt Q92560, whole entry: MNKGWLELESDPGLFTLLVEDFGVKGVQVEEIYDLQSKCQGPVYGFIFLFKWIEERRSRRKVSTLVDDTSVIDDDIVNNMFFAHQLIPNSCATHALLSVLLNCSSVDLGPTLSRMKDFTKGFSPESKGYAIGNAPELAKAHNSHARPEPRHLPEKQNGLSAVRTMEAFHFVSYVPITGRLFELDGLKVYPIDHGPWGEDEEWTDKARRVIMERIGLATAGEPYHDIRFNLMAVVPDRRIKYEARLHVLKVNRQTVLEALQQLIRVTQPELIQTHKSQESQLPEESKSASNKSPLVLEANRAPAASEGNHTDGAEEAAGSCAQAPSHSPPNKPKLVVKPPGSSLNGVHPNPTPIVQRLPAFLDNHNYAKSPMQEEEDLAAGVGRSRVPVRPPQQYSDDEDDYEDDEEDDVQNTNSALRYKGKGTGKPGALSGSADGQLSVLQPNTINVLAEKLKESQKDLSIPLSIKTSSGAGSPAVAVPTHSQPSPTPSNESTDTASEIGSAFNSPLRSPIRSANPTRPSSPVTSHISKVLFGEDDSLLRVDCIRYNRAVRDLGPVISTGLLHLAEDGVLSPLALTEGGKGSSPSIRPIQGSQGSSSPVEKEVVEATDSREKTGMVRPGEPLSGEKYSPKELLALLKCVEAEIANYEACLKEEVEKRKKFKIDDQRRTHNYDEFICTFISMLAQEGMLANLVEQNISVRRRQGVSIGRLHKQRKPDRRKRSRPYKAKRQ

Tests used:
Assay in all cases: co-IP
[1] = target: C-terminal Myc-FLAG tagged PRR14L (human) (UniProt Q5THK1)
[2] = target: PRR14L-2067/8EE>AA (human) (UniProt Q5THK1)
PRR14L-Q314X (human) = target: T1, PRR14L-Q314X (human) (UniProt Q5THK1)
T1 sequence: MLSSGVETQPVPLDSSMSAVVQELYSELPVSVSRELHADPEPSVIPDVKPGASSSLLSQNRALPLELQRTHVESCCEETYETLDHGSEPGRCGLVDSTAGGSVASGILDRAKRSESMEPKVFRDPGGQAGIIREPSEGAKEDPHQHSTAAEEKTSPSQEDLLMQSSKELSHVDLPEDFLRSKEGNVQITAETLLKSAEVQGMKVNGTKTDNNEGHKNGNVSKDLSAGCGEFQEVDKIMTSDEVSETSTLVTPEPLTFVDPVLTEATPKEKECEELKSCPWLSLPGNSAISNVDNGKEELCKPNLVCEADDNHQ

PRR14L-R1833X (human) = PRR14L-R1833X (human) (UniProt Q5THK1)
PRR14L-TANT (human) = target: T2, PRR14L-TANT (human) (UniProt Q5THK1)
T2 sequence: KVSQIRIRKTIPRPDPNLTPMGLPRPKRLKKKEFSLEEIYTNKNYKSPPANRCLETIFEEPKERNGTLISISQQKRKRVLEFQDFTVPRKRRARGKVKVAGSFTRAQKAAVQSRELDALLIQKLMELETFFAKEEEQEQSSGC

| binding [1] | Substance | binding [2] | binding (PRR14L-Q314X (human)) | binding (PRR14L-R1833X (human)) | binding (PRR14L-TANT (human)) |
| --- | --- | --- | --- | --- | --- |
| binds | HA-tagged B56α (V245 pCEP-4HA B56α) (from UniProt Q15172 1-486) | no binding | no binding | no binding | binds |
| no binding | HA-tagged CIT (Citron Rho-Interacting Serine/Threonine Kinase) (from UniProt O14578-4 1-2069) | – | – | – | – |
| – | HA-tagged BAP1 (from UniProt Q92560 1-729) | binds | no binding | binds | binds |
